{"source": "patent US20200383905A1", "about": "(priority 2015, published 2020)", "origin": "cited, not measured here", "key": {"[1]": {"tested_on": "patients undergoing major abdominal gynecologic surgery", "details": "cited from earlier work"}, "[2]": {"details": "in vivo; cited from earlier work"}}, "note": "Counter-ions that a name gives are not always drawn. Like-named read-outs stand apart in the source and are kept apart here. At least one structure is not confirmed: it was looked up by name or label, or the drawing left a doubt."}
{"smiles": "COc1cccc([C@]2(O)CCCC[C@H]2CN(C)C)c1", "note": "(racemic) [Tramadol, (±)cis-2-[(dimethylamino)methyl]-1-(3-methoxyphenyl) cyclohexanol hydrochloride]", "values": [{"measurement": "Patients in whom tramadol was ineffective as pain relief within 2 hours", "setting": "[1]; bolus group", "result": 20, "unit": "%"}, {"measurement": "Tramadol required on demand, less than saline infusion group", "setting": "[1]; infusion 15 mg/h plus 100 mg boluses as requested", "result": 60, "unit": "%"}, {"measurement": "Patients in whom tramadol was ineffective as pain relief within 2 hours", "setting": "[1]; infusion group", "result": 6, "unit": "%"}, {"measurement": "Potency ratio of IV tramadol to IV morphine", "setting": "[2]", "result": "approximately 1:10"}]}
